From article PMC4043117 come the findings set out here.

Protein sequences, listed by entry. Tags and fused reporters are not part of them. Lines headed by an entry give the natural chain unless they say otherwise; changes in a name come on top.
UniProt O94682: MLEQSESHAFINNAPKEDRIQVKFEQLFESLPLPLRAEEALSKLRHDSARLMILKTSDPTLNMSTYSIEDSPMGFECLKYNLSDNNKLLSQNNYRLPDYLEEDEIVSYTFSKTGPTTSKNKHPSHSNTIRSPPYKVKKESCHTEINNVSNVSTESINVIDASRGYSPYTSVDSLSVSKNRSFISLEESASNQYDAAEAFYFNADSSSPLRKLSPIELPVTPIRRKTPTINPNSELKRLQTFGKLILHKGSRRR
UniProt O42995: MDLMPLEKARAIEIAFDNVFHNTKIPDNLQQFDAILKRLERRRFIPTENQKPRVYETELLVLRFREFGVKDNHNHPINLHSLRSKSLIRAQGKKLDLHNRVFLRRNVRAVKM

Results are given in words; binding and its absence hold for the method and conditions named. Binding seen in cells or lysates may run through a third protein. A yes stands for co-enrichment or nearness to the bait. Other partners may have been found. For some assays here: Where a sequence is shown, tags or fusion partners need not be part of it.

In experiment [1] the target is T1, Mis16-Myc (S. pombe) (UniProt O94244).
T1 sequence: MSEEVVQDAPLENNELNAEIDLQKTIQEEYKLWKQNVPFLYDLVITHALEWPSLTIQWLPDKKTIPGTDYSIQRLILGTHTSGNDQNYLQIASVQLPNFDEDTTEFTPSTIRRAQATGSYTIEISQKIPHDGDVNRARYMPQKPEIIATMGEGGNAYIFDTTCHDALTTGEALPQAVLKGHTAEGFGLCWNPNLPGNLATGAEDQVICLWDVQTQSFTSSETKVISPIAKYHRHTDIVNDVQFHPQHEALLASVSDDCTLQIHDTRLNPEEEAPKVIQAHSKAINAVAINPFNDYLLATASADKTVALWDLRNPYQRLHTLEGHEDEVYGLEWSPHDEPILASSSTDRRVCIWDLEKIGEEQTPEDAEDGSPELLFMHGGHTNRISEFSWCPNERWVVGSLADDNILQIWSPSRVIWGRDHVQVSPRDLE
The experiment can be described thus: affinity purification with mass spectrometry; 5 g pulverized S. pombe cells expressing Myc-tagged Mis16 or Mis18; anti-Myc 9E10 on Protein G Dynabeads; untagged control; on-bead tryptic digestion, LC-MS/MS; three replicates.

In experiment [2] the target is T2, Mis18-Myc (S. pombe) (UniProt Q9P802).
T2 sequence: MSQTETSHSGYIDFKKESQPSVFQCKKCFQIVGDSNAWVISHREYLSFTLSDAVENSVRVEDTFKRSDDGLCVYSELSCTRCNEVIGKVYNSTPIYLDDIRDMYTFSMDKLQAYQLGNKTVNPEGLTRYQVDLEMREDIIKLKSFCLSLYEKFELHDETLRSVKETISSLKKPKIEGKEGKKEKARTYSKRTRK
The experiment is described as above.

In experiment [3] the target is Eic2-GFP (S. pombe) (UniProt O94682). The experiment can be described thus: affinity purification with mass spectrometry; 5 g pulverized S. pombe cells expressing GFP-tagged Eic1 or Eic2; anti-GFP A11122 on Protein G Dynabeads; untagged control; on-bead tryptic digestion, LC-MS/MS; three replicates.
For experiment [4], the target named is T3, Mis16-Myc (S. pombe), O94244.
T3 chain: T1 sequence
The experiment can be described thus: affinity purification with mass spectrometry; 5 g pulverized S. pombe cells expressing Myc-tagged Mis16 or Mis18; anti-Myc 9E10 on Protein G Dynabeads; untagged control; on-bead tryptic digestion, LC-MS/MS; three replicates. The settings on record: remark: other sources report otherwise.

Experiment [5] concerns the target Eic1-GFP (S. pombe) (UniProt O42995). The experiment can be described thus: affinity purification with mass spectrometry; 5 g pulverized S. pombe cells expressing GFP-tagged Eic1 or Eic2; anti-GFP A11122 on Protein G Dynabeads; untagged control; on-bead tryptic digestion, LC-MS/MS; three replicates.
The target in experiment [6] is T4, Hat1-HA (S. pombe) (UniProt Q9UTM7).
T4 sequence: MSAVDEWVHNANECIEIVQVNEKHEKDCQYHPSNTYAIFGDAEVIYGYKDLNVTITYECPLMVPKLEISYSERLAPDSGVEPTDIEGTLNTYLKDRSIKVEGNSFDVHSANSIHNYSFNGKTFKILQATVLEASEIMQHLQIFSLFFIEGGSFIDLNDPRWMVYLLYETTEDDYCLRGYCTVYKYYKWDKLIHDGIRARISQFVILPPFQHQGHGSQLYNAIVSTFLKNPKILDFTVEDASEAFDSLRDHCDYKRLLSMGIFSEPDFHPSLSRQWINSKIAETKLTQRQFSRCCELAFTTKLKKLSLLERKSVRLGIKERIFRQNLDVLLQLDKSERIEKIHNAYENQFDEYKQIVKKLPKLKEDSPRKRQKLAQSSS
The experiment can be described thus: affinity purification with mass spectrometry; Hat1-HA immunoprecipitates from S. pombe subjected to LC/MS-MS.

Take “Eic1 (Eighteen Interacting Centromere protein 1) (from UniProt O42995)”: the binding result in experiment [1], in experiment [2] and in experiment [3] was “binds” each time.

Regarding “Eic2 (Eighteen Interacting Centromere protein 2) (from UniProt O94682)”, the binding result in experiment [2] was “binds”.

B1: Mis18, Q9P802 1-194 (protein)
chain: T2 sequence
For the molecule B1, the binding entry in experiment [4] is “binds”.

B2: Mis18 (protein, UniProt Q9P802 1-194)
chain: T2 sequence
Consider B2, for which the binding entry in experiment [3] is given as “binds”.

B3: Mal2^CENP-O/Mcm21 (protein, UniProt Q10290 1-303)
chain: MDDEEGNATLIDEISVLEARRDVLLDELKSLDNATLSDLVQKPELSKNLSVNNEFLKETPLNQPALHYDRLSGISFFQPNDPEELSRKTLLVKNKKTGAIETAPSIPLLGVRFDIMLNPVNIGFTNLSENPISSASGMDEELEGGNRFDVPYYIIFRVFHDSFALYKYTIPSFLNIQEWADEYLTGKNPERFRIFLWKVDKLLTAYICRKNALLQINKSLTIDGTNISANLSCTHLVIQIPKVIQATLVCSSESTRVVKSRIYQYSDENWKRDHRLELSLLDNKRWVNILVSHLTAPESHASL
As to B3, the binding result in experiment [5] is “binds”.

B4: Mis16^RbAp46/48/Hat2 (protein, UniProt O94244 1-430)
chain: T1 sequence
Consider B4, for which the binding entry in experiment [6] was “binds”.

B5: histone H4 acetyltransferase Hat1 (protein, UniProt Q9UTM7 1-378)
chain: T4 sequence
Take B5: the binding entry in experiment [1] was “binds”.

B6: Cnl2^Nkp2 (protein, UniProt O13952 1-188)
chain: MNMEEQILNDYLLSQGRLQSIISLEQWRQLFPQRYREDPLIERLYEYCTQQRQKRLAKLRANIHLESQVIGKSRIDRMLATNVEKLQTVSHASTLHDVEEFYTSHSAKPLDISEINERLSEAVQSAYTKLNEEKERCTQLTLKMNSQIASLSDFQWSKEPNVDESIHLVESLIESLEKAAPSAIEELD
For B6, the binding entry in experiment [5] was “binds”.

B7: Fta7^CENP-Q/Okp1 (protein, UniProt O74844 1-244)
chain: MEMKRRVRAVRRDQIQKRWRPLEDKQRQEIIIIFRTCSRLVLNTIKSETRKSLAEEWFMNILLKIEAPLRNLPVPRKRKESILFSQLLSSNMQLEQQLYSDLDHINVLQQELKVETARLENEQKSYEEMKQNMAINNSRLADLKSKLHPYLKKGLKISHDNFSDSNDFSFQKKLNTEDSNTSKTSTLDMYKEKLKPFTKTMQIHANKTVQLSQTIQKATLLLQRLNNTKNIGLNKSSKLKIKNI
Turning to B7, the binding entry in experiment [5] is given as “binds”.
